The other results are listed elsewhere or left out.
Experiments:
Test in all cases: log2 fold change, soluble protein after heating vs DMSO (PISA); higher = thermal stabilisation; K562 cells, 10 uM, 30 min; active = over 0.2 and 3.5 SD of the protein, either way, in both replicates (recomputed)
[1] = compound: NC(=O)Nc1cc(-c2cccc(F)c2)sc1C(=O)N[C@H]1CCCNC1
Summary of the method: (§1)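 Thermal stability values are relative to control samples and come from duplicates. They are expressed as log2 fold changes. For measurement, K562 cells (2×10^6 cells/mL) received 10 μM compound for 30 min, and aliquots were heated for 3 min over 48°C-58°C, pooled, and extracted at 4°C in PBS with 0.5% NP-40. Soluble protein, the supernatant after 21,000xg for 90 min, was quantified by TMTpro 16plex LC-MS/MS with equalised channel sums.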

Amino acid sequences for entries named in this document (tags omitted). A change or cut given only in a name is not applied to a line headed by its entry.
UniProt Q5XKP0: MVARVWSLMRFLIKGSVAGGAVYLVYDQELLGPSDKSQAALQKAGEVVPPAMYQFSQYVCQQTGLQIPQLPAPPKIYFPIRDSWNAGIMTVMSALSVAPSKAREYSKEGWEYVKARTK
UniProt Q9H000: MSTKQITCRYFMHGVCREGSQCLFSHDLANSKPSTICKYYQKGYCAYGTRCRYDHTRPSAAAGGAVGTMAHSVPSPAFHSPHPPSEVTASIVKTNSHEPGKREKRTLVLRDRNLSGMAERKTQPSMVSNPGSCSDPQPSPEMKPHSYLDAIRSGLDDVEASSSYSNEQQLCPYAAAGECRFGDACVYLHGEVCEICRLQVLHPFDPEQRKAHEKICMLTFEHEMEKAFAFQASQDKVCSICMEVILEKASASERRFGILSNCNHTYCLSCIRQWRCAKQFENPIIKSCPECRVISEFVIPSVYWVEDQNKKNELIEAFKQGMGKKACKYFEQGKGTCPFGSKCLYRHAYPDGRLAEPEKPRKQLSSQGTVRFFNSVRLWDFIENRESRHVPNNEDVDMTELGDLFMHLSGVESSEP
UniProt Q14149: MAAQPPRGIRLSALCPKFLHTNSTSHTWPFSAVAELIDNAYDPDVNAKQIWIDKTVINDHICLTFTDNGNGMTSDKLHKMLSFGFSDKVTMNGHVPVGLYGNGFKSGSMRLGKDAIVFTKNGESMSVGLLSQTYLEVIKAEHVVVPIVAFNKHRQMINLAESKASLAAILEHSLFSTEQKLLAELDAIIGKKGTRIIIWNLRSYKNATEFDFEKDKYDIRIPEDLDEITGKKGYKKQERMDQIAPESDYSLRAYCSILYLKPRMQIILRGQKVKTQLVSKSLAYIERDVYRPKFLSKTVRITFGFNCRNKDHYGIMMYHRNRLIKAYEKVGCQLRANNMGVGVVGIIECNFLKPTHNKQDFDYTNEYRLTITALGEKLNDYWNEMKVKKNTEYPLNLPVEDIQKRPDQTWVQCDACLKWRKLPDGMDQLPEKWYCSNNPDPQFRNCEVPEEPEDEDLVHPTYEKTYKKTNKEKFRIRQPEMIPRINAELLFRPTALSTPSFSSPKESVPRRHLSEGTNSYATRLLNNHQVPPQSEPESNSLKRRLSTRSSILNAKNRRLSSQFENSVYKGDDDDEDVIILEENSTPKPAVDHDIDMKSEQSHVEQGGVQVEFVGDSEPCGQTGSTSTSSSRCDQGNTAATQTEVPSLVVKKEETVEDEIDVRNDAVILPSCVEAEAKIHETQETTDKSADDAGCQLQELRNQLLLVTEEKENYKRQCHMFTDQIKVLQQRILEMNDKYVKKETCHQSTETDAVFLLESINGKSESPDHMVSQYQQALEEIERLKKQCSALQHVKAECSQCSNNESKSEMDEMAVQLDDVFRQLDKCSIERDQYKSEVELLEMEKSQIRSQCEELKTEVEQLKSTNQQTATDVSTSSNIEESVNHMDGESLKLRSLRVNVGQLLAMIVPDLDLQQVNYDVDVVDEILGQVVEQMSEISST
UniProt O00566: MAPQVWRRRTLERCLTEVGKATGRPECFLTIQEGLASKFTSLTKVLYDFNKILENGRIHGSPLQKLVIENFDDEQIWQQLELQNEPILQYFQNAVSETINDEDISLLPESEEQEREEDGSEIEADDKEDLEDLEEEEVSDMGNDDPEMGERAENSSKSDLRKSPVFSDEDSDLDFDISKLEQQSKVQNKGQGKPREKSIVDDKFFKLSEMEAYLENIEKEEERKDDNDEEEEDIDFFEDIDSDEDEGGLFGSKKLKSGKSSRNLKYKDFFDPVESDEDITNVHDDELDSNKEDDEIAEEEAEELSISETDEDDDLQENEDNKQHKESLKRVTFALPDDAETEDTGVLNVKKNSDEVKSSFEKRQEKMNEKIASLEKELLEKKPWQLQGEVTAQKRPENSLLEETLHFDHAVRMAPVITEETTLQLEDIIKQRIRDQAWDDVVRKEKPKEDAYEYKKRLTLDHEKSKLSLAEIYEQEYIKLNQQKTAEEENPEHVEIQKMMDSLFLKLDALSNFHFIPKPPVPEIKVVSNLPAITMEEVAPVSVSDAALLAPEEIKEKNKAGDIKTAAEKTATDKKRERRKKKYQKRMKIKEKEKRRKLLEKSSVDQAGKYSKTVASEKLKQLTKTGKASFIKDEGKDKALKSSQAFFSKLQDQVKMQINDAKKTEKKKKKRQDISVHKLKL
UniProt Q9BPX6: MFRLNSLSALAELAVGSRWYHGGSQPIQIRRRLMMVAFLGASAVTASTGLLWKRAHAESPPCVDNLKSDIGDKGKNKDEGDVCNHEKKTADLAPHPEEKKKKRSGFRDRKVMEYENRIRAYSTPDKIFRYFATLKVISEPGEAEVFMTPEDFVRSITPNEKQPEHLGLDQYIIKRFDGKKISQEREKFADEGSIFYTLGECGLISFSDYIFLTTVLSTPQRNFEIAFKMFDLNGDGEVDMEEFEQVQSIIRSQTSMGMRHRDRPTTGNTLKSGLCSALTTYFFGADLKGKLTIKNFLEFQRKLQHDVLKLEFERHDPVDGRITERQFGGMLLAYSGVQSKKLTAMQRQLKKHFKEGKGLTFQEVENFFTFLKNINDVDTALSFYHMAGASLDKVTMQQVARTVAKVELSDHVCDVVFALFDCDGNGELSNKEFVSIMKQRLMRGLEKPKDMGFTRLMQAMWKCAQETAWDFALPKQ
UniProt Q8WV92, whole entry, looked up: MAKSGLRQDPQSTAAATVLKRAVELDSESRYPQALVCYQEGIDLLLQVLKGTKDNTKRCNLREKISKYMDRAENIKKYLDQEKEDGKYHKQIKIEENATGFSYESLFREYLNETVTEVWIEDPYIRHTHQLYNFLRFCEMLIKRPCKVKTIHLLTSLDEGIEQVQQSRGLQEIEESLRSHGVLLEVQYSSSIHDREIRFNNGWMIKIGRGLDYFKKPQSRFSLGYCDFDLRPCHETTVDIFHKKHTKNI
UniProt Q7L1V2: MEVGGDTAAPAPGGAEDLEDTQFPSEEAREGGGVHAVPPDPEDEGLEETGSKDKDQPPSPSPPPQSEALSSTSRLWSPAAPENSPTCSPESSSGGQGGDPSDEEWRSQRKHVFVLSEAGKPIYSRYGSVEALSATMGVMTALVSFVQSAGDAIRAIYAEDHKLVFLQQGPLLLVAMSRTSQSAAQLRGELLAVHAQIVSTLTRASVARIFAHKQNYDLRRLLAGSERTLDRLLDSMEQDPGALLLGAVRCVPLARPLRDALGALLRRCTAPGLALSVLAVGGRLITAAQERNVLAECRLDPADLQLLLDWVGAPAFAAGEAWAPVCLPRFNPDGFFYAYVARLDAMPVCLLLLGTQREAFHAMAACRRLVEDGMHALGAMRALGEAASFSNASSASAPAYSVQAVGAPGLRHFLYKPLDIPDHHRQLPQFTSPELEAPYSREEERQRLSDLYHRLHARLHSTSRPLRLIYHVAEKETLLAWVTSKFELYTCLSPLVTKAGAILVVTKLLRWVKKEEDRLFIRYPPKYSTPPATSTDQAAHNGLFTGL
UniProt Q9BUB5: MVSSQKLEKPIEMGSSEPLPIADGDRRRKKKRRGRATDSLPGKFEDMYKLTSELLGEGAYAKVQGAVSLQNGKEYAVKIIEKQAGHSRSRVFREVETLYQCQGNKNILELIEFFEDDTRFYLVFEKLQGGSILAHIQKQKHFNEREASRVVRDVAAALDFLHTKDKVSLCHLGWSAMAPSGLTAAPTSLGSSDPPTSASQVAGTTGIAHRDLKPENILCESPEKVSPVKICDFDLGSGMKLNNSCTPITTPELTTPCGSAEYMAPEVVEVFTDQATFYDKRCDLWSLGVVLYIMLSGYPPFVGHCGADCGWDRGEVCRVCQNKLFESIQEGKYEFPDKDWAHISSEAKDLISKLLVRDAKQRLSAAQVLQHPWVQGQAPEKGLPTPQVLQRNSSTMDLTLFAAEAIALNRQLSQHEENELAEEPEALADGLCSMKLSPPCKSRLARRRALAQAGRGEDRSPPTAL
UniProt Q9HCE1: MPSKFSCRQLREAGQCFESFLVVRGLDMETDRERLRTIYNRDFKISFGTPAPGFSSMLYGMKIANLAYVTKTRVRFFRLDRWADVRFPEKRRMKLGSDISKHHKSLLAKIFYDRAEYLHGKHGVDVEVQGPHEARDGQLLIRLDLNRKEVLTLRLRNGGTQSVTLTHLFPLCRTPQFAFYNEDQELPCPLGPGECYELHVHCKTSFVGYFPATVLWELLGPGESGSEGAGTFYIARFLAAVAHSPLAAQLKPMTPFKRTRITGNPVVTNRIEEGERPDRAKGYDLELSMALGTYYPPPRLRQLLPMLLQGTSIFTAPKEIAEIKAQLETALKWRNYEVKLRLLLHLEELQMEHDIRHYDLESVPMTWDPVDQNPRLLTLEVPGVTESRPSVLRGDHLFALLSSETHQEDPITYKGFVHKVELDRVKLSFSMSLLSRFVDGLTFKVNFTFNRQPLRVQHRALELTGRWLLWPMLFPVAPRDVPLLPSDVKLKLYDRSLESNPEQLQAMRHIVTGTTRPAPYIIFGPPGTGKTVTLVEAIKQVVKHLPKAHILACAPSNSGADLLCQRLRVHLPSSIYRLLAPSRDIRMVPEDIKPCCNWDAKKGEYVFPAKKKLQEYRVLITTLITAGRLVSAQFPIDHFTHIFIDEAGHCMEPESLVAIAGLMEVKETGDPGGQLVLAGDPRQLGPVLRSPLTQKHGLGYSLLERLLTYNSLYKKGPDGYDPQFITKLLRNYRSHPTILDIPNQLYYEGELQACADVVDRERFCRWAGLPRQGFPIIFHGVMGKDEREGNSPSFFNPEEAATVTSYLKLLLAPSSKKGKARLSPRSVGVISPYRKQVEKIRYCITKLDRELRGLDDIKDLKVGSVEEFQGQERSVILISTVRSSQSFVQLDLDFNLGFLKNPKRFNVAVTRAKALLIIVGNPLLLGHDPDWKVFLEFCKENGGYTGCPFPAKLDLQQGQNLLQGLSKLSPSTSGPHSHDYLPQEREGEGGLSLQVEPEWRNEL
UniProt Q14165: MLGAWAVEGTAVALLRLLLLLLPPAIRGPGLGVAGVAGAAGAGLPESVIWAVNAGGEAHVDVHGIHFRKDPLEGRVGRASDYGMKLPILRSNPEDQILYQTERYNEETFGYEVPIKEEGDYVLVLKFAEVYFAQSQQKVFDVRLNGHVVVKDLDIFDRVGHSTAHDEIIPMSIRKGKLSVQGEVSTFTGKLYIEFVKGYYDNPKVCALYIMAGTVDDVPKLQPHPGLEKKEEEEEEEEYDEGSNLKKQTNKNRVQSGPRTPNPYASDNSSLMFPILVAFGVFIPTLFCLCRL
UniProt Q8TAP9: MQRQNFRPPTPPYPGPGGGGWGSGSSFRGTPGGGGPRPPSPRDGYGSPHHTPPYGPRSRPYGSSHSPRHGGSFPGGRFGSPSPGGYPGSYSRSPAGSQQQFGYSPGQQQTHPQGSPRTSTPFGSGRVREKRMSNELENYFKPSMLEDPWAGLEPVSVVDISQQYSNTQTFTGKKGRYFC
UniProt Q99797: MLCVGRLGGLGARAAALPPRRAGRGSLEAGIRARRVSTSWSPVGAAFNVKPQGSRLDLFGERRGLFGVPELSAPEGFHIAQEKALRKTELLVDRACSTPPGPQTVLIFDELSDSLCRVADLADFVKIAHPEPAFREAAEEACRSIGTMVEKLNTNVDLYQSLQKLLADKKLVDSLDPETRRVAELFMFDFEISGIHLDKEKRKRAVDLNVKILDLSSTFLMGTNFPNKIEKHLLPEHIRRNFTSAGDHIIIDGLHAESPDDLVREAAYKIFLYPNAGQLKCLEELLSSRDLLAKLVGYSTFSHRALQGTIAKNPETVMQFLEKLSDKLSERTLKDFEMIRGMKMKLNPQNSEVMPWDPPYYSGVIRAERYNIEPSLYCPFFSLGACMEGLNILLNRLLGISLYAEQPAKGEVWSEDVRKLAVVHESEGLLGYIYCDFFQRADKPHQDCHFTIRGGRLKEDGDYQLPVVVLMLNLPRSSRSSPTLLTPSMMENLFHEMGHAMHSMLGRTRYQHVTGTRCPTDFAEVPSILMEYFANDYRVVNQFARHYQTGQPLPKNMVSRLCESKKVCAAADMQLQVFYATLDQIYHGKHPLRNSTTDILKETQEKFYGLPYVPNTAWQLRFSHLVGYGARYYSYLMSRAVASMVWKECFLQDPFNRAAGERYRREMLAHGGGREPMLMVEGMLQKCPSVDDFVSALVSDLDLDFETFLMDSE
UniProt Q8IYU8: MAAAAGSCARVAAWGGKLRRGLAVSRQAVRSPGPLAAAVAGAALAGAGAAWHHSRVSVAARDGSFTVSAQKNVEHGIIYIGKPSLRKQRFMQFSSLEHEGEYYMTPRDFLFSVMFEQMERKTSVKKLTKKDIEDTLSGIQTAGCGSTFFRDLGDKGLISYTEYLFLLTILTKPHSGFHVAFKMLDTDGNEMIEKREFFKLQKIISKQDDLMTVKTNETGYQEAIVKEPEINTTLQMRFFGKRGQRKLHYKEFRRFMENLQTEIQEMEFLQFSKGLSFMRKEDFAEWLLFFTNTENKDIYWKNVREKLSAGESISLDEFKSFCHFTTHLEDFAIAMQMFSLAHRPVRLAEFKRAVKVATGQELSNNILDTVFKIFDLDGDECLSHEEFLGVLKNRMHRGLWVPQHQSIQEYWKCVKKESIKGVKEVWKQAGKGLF

[2] = compound: NC(=O)c1cnc(N[C@@H]2CCCC[C@@H]2N)nc1Nc1cccc(-n2nccn2)c1
Summary of the method: as §1

[3] = compound: NC1(c2ccc(-c3nc4ccn5c(=O)[nH]nc5c4cc3-c3ccccc3)cc2)CCC1
Summary of the method: as §1

[4] = compound: NCC(=O)Nc1ccc(-n2nc(C(F)(F)F)cc2-c2ccc3c(ccc4ccccc43)c2)cc1
Summary of the method: as §1

[5] = compound: Nc1ccccc1NC(=O)c1ccc(CNC(=O)OCc2cccnc2)cc1 [entinostat]
Summary of the method: as §1

[6] = compound: O=C(CCCCCCC(=O)Nc1ccccc1)NO [vorinostat]
Summary of the method: as §1

[7] = compound: O=C(CCCCCCNC(=O)c1cnc(N(c2ccccc2)c2ccccc2Cl)nc1)NO [citarinostat]
Summary of the method: as §1

[8] = compound: O=C(O)c1ccc2c(c1)nc(Nc1cccc(Cl)c1)c1ccncc12 [silmitasertib]
Summary of the method: as §1

[9] = compound: O=C1NC(=O)C(c2cnc3ccccn23)=C1c1cn2c3c(cc(F)cc13)CN(C(=O)N1CCCCC1)CC2
Summary of the method: as §1

[10] = compound: c1cc(OCCN2CCCCC2)cc(-c2n[nH]c3ccc(-c4nnc[nH]4)cc23)c1
Summary of the method: as §1

[11] = compound: c1cn2cc(-c3ccc4cn[nH]c4c3)nc(Nc3ccc(N4CCOCC4)cc3)c2n1 [entospletinib]
Summary of the method: as §1

| Target | log2 fold change [1] | log2 fold change [2] | log2 fold change [3] | log2 fold change [4] | log2 fold change [5] | log2 fold change [6] | log2 fold change [7] | log2 fold change [8] | log2 fold change [9] | log2 fold change [10] | log2 fold change [11] |
| --- | --- | --- | --- | --- | --- | --- | --- | --- | --- | --- | --- |
| MRPL3 (UniProt P09001) | inactive: 0.055 | inactive: 0.08 | inactive: -0.008 | inactive: 0.087 | inactive: 0.009 | inactive: 0.033 | inactive: 0.011 | inactive: 0.013 | inactive: 0.01 | inactive: -0.055 | inactive: 0.092 |
| MICOS13 (UniProt Q5XKP0) | inactive: -0.018 | inactive: -0.023 | inactive: -0.119 | inactive: 0.029 | inactive: 0.041 | inactive: 0.018 | inactive: 0.028 | inactive: -0.02 | inactive: -0.106 | inactive: 0.025 | – |
| MRPL39 (UniProt Q9NYK5) | inactive: -0.026 | inactive: 0.024 | inactive: -0.015 | inactive: 0.084 | inactive: -0.01 | inactive: 0.087 | inactive: 0.006 | inactive: 0.048 | inactive: 0.049 | inactive: -0.031 | inactive: 0.073 |
| MRPL47 (UniProt Q9HD33) | inactive: 0.024 | inactive: 0.058 | inactive: 0.039 | inactive: 0.057 | inactive: 0.028 | inactive: -0.195 | inactive: -0.087 | inactive: -0.021 | inactive: -0.011 | inactive: 0.336 | – |
| MKRN2 (UniProt Q9H000) | inactive: -0.007 | inactive: 0 | inactive: 0.094 | inactive: -0.044 | inactive: 0.104 | inactive: 0.228 | inactive: 0.042 | inactive: 0.047 | inactive: 0.052 | inactive: -0.129 | – |
| MON2 isoform 5 (UniProt Q7Z3U7) | inactive: -0.023 | inactive: 0.012 | inactive: -0.107 | inactive: -0.038 | inactive: -0.003 | inactive: 0.097 | inactive: 0.056 | inactive: 0.021 | inactive: -0.006 | inactive: -0.003 | – |
| MRPL50 (UniProt Q8N5N7) | inactive: 0.024 | inactive: 0.154 | inactive: 0.035 | inactive: 0.074 | inactive: 0.059 | inactive: -0.102 | inactive: 0.051 | inactive: 0.006 | inactive: -0.078 | inactive: -0.078 | – |
| MRPL20 (UniProt Q9BYC9) | inactive: -0.005 | inactive: 0.061 | inactive: 0.046 | inactive: 0.115 | inactive: -0.011 | inactive: 0.011 | inactive: -0.017 | inactive: 0.003 | inactive: -0.023 | inactive: -0.075 | inactive: 0.052 |
| MORC3 (UniProt Q14149) | inactive: 0.024 | inactive: -0.047 | inactive: -0.241 | inactive: -0.22 | inactive: -0.021 | inactive: -0.159 | inactive: -0.118 | inactive: 0.201 | inactive: -0.066 | inactive: 0.089 | – |
| MINK1 (UniProt Q8N4C8) | inactive: 0.006 | inactive: -0.032 | inactive: -0.097 | inactive: 0.005 | inactive: 0.045 | inactive: 0.057 | inactive: 0.077 | inactive: -0.041 | inactive: 0.015 | inactive: -0.119 | – |
| MPHOSPH10 (UniProt O00566) | inactive: 0.089 | inactive: 0.016 | inactive: 0.186 | inactive: 0.064 | inactive: 0.017 | inactive: 0.045 | inactive: 0.062 | inactive: 0.112 | inactive: 0.067 | inactive: -0.169 | – |
| MICU1 isoform 3 (UniProt Q9BPX6) | inactive: -0.048 | inactive: -0.022 | inactive: -0.012 | inactive: 0.039 | inactive: 0.016 | inactive: 0.017 | inactive: 0.053 | inactive: 0.117 | inactive: 0.027 | inactive: -0.085 | – |
| MORF4L2 (UniProt Q15014) | inactive: 0.021 | inactive: 0.047 | inactive: 0.123 | inactive: 0.027 | inactive: -0.066 | inactive: 0.04 | inactive: -0.044 | inactive: 0.087 | inactive: 0.04 | inactive: -0.121 | – |
| MRPL43 isoform 4 (UniProt Q8N983) | inactive: -0.116 | inactive: -0.026 | inactive: 0.046 | inactive: 0.143 | inactive: 0.035 | inactive: 0.021 | inactive: -0.014 | inactive: 0.004 | inactive: 0.004 | inactive: -0.041 | inactive: 0.049 |
| MITD1 (UniProt Q8WV92) | inactive: 0.016 | inactive: -0.018 | inactive: -0.387 | inactive: -0.059 | inactive: -0.08 | inactive: 0.057 | inactive: -0.135 | inactive: 0.14 | inactive: -0.176 | inactive: 0.228 | – |
| MPP1 (UniProt Q00013) | inactive: -0.083 | inactive: -0.015 | inactive: -0.159 | inactive: -0.067 | inactive: 0.047 | inactive: 0.093 | inactive: 0.036 | inactive: 0.022 | inactive: 0.027 | inactive: -0.059 | – |
| MON1B (UniProt Q7L1V2) | inactive: 0.015 | inactive: -0.045 | active: -0.312 | inactive: -0.053 | inactive: -0.018 | inactive: -0.001 | inactive: 0.056 | inactive: 0.032 | inactive: 0.052 | inactive: -0.081 | – |
| MKNK1 (UniProt Q9BUB5) | inactive: 0.226 | inactive: -0.157 | inactive: -0.158 | inactive: -0.059 | inactive: -0.026 | inactive: -0.025 | inactive: 0.025 | inactive: 0.012 | inactive: 0.019 | inactive: -0.042 | – |
| MOV10 (UniProt Q9HCE1) | inactive: 0.007 | inactive: 0.031 | inactive: 0.178 | inactive: 0.018 | inactive: 0.016 | inactive: -0.02 | inactive: -0.054 | inactive: 0.133 | inactive: 0.187 | inactive: -0.164 | – |
| MLEC (UniProt Q14165) | inactive: -0.002 | inactive: -0.01 | inactive: -0.033 | inactive: 0.015 | inactive: 0.013 | inactive: -0.029 | inactive: -0.004 | inactive: 0.039 | inactive: -0.037 | inactive: -0.051 | inactive: 0.011 |
| MRPL46 (UniProt Q9H2W6) | inactive: -0.067 | inactive: 0.009 | inactive: 0.023 | inactive: -0.014 | inactive: -0.003 | inactive: 0.011 | inactive: 0.007 | inactive: 0.005 | inactive: 0.028 | inactive: -0.062 | – |
| MIEF1 (UniProt L0R8F8) | inactive: 0.085 | inactive: 0.094 | inactive: 0.047 | inactive: 0.002 | inactive: 0.007 | inactive: -0.012 | inactive: 0.039 | inactive: -0.021 | inactive: -0.063 | inactive: -0.056 | – |
| MPLKIP (UniProt Q8TAP9) | inactive: 0.048 | inactive: -0.013 | inactive: -0.06 | inactive: 0.122 | inactive: 0.002 | inactive: 0.022 | inactive: -0.002 | inactive: 0.141 | inactive: 0.207 | inactive: -0.073 | inactive: -0.028 |
| MIER1 isoform 12 (UniProt Q8N108) | inactive: -0.026 | inactive: -0.03 | inactive: -0.074 | inactive: -0.025 | active: 0.292 | active: 0.28 | active: 0.273 | inactive: -0.017 | inactive: -0.066 | inactive: -0.061 | – |
| MIPEP (UniProt Q99797) | inactive: 0.001 | inactive: -0.038 | inactive: -0.112 | inactive: -0.027 | inactive: 0.039 | inactive: -0.022 | inactive: 0.078 | inactive: -0.05 | inactive: -0.018 | inactive: 0.096 | inactive: -0.078 |
| MRPL53 (UniProt Q96EL3) | inactive: 0.017 | inactive: -0.04 | inactive: 0.076 | inactive: 0.094 | inactive: -0.118 | inactive: -0.018 | inactive: 0.01 | inactive: 0.005 | inactive: -0.093 | inactive: -0.106 | inactive: 0.063 |
| MRPL15 (UniProt Q9P015) | inactive: 0.011 | inactive: -0.027 | inactive: 0.031 | inactive: 0.082 | inactive: 0.008 | inactive: 0.007 | inactive: 0.013 | inactive: 0.023 | inactive: 0.117 | inactive: -0.059 | inactive: 0.117 |
| MRPL34 (UniProt Q9BQ48) | inactive: 0.02 | inactive: 0.018 | inactive: 0.045 | inactive: 0.095 | inactive: -0.041 | inactive: 0.035 | inactive: 0.004 | inactive: 0.053 | inactive: 0.09 | inactive: -0.175 | – |
| MICU2 (UniProt Q8IYU8) | inactive: -0.095 | inactive: -0.075 | inactive: -0.121 | inactive: -0.006 | inactive: -0.014 | inactive: 0.073 | inactive: 0.042 | inactive: 0.076 | inactive: 0.04 | inactive: -0.141 | – |

Reprinted at random: 2 entries already listed

| Target | log2 fold change [1] | log2 fold change [2] | log2 fold change [3] | log2 fold change [4] | log2 fold change [5] | log2 fold change [6] | log2 fold change [7] | log2 fold change [8] | log2 fold change [9] | log2 fold change [10] | log2 fold change [11] |
| --- | --- | --- | --- | --- | --- | --- | --- | --- | --- | --- | --- |
| MICOS13 (UniProt Q5XKP0) | inactive: -0.018 | inactive: -0.023 | inactive: -0.119 | inactive: 0.029 | inactive: 0.041 | inactive: 0.018 | inactive: 0.028 | inactive: -0.02 | inactive: -0.106 | inactive: 0.025 | – |
| MRPL53 (UniProt Q96EL3) | inactive: 0.017 | inactive: -0.04 | inactive: 0.076 | inactive: 0.094 | inactive: -0.118 | inactive: -0.018 | inactive: 0.01 | inactive: 0.005 | inactive: -0.093 | inactive: -0.106 | inactive: 0.063 |
